# Results as given in article PMC10149416.
# No constants are given. Whether binding was seen depends on the method and setting. Binding seen in cells or lysates may run through a third protein. Some results given as binding are weak or reduced against the parent protein; the word gives no strength. For part of these data: Sequences can lack the tags named with a protein.
# T1: Flag-tagged UTP11 (human) (UniProt Q9Y3A2)
# T1 sequence: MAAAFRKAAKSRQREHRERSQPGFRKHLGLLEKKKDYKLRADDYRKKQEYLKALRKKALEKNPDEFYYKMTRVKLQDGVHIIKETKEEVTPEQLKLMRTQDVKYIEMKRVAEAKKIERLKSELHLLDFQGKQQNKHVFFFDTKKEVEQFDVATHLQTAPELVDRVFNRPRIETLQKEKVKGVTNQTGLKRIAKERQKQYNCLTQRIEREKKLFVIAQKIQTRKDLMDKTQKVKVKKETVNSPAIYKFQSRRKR
# T2: Myc-tagged MPP10 (human) (UniProt O00566)
# T2 sequence: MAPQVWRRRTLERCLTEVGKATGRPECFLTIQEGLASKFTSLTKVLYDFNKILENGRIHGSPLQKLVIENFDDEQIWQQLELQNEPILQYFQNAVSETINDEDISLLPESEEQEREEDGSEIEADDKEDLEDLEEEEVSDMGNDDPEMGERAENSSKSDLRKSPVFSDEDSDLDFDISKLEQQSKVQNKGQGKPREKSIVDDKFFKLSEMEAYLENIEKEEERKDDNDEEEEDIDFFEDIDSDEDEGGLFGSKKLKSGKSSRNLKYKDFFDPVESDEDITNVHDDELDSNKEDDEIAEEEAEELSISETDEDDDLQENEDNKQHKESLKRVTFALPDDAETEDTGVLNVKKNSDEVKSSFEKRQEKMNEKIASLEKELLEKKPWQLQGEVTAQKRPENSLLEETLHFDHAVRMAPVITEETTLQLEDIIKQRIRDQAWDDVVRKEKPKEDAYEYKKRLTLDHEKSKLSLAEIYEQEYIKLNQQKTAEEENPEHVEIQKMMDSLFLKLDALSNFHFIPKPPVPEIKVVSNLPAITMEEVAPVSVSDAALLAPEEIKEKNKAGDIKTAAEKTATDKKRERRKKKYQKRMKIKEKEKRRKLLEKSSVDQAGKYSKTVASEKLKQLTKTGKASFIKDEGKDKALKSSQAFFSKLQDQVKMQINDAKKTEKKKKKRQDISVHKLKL
# T3: UTP11 (endogenous) (human (endogenous in HCT116)) (UniProt Q9Y3A2)
# T3 sequence: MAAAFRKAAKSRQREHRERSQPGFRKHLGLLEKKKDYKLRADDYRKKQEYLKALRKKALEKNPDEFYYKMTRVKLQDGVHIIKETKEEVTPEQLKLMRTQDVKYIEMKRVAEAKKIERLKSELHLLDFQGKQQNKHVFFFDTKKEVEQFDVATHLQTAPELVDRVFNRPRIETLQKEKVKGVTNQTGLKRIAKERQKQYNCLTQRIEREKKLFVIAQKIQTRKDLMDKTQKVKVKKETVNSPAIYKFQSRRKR
# Experiments:
# [1] = molecular target: T1, Flag-tagged UTP11 (human); experiment: co-IP; cells transfected with the indicated plasmids (Flag-UTP11, Myc-MPP10); reciprocal co-IP followed by immunoblot
# Myc-tagged MPP10 (human) = molecular target: T2, Myc-tagged MPP10 (human); experiment: as above
# [2] = molecular target: T3, UTP11 (endogenous) (human (endogenous in HCT116)); experiment: co-IP; endogenous proteins; HCT116 p53+/+ cells treated with MG132 for 6 h; co-IP followed by immunoblot
binder,measurement,setting,value
"Myc-tagged MPP10 (protein, UniProt O00566 1-681) MAPQVWRRRTLERCLTEVGKATGRPECFLTIQEGLASKFTSLTKVLYDFNKILENGRIHGSPLQKLVIENFDDEQIWQQLELQNEPILQYFQNAVSETINDEDISLLPESEEQEREEDGSEIEADDKEDLEDLEEEEVSDMGNDDPEMGERAENSSKSDLRKSPVFSDEDSDLDFDISKLEQQSKVQNKGQGKPREKSIVDDKFFKLSEMEAYLENIEKEEERKDDNDEEEEDIDFFEDIDSDEDEGGLFGSKKLKSGKSSRNLKYKDFFDPVESDEDITNVHDDELDSNKEDDEIAEEEAEELSISETDEDDDLQENEDNKQHKESLKRVTFALPDDAETEDTGVLNVKKNSDEVKSSFEKRQEKMNEKIASLEKELLEKKPWQLQGEVTAQKRPENSLLEETLHFDHAVRMAPVITEETTLQLEDIIKQRIRDQAWDDVVRKEKPKEDAYEYKKRLTLDHEKSKLSLAEIYEQEYIKLNQQKTAEEENPEHVEIQKMMDSLFLKLDALSNFHFIPKPPVPEIKVVSNLPAITMEEVAPVSVSDAALLAPEEIKEKNKAGDIKTAAEKTATDKKRERRKKKYQKRMKIKEKEKRRKLLEKSSVDQAGKYSKTVASEKLKQLTKTGKASFIKDEGKDKALKSSQAFFSKLQDQVKMQINDAKKTEKKKKKRQDISVHKLKL",binding,[1],binds
"Flag-tagged UTP11 (protein, UniProt Q9Y3A2 1-253) MAAAFRKAAKSRQREHRERSQPGFRKHLGLLEKKKDYKLRADDYRKKQEYLKALRKKALEKNPDEFYYKMTRVKLQDGVHIIKETKEEVTPEQLKLMRTQDVKYIEMKRVAEAKKIERLKSELHLLDFQGKQQNKHVFFFDTKKEVEQFDVATHLQTAPELVDRVFNRPRIETLQKEKVKGVTNQTGLKRIAKERQKQYNCLTQRIEREKKLFVIAQKIQTRKDLMDKTQKVKVKKETVNSPAIYKFQSRRKR",binding,Myc-tagged MPP10 (human),binds
"MPP10 (endogenous) (protein, UniProt O00566 1-681) MAPQVWRRRTLERCLTEVGKATGRPECFLTIQEGLASKFTSLTKVLYDFNKILENGRIHGSPLQKLVIENFDDEQIWQQLELQNEPILQYFQNAVSETINDEDISLLPESEEQEREEDGSEIEADDKEDLEDLEEEEVSDMGNDDPEMGERAENSSKSDLRKSPVFSDEDSDLDFDISKLEQQSKVQNKGQGKPREKSIVDDKFFKLSEMEAYLENIEKEEERKDDNDEEEEDIDFFEDIDSDEDEGGLFGSKKLKSGKSSRNLKYKDFFDPVESDEDITNVHDDELDSNKEDDEIAEEEAEELSISETDEDDDLQENEDNKQHKESLKRVTFALPDDAETEDTGVLNVKKNSDEVKSSFEKRQEKMNEKIASLEKELLEKKPWQLQGEVTAQKRPENSLLEETLHFDHAVRMAPVITEETTLQLEDIIKQRIRDQAWDDVVRKEKPKEDAYEYKKRLTLDHEKSKLSLAEIYEQEYIKLNQQKTAEEENPEHVEIQKMMDSLFLKLDALSNFHFIPKPPVPEIKVVSNLPAITMEEVAPVSVSDAALLAPEEIKEKNKAGDIKTAAEKTATDKKRERRKKKYQKRMKIKEKEKRRKLLEKSSVDQAGKYSKTVASEKLKQLTKTGKASFIKDEGKDKALKSSQAFFSKLQDQVKMQINDAKKTEKKKKKRQDISVHKLKL",binding,[2],binds
